Experimental data from PubChem BioAssay AID540276 (National Center for Advancing Translational Sciences (NCATS), 2011).
The campaign covered roughly 300,000 compounds. About 5,400 (1.8%) were called active. Inconclusive means that the source gave no clear call. Such entries were picked first, then a sample of the others. Calls follow the shape of the full dose curve; tested in HEK293 cells. Potencies of inconclusive entries are doubtful fits and often do not repeat.

Assay: qHTS for inhibitors of binding or entry into cells for Marburg Virus
Settings: Marburg virus pseudotyped entry inhibition, cell reporter; activity change, negative = inhibition: at 37.8 µM (top of the series) unless noted
% is scaled to controls: 0 for no effect and ±100 for the full control effect; potency is read from the fitted curve at half-maximal effect.

| Structure (SMILES) | activity change, negative = inhibition | Potency |
| --- | --- | --- |
| Cc1ccc(-c2nc(CS(=O)(=O)CC(=O)NCc3ccc(Cl)cc3)c(C)o2)cc1 | inactive: -3.4% [at 46.1 µM] |  |
| Cc1ncoc1C(=O)NC1CC(C)(C)Cc2c1cnn2-c1ccccc1 (stereo not drawn) | inactive: -2.84% |  |
| Cc1ccc(CN2CCC(n3nccc3NC(=O)C3CCOC3)CC2)cc1 (stereo not drawn) |  | inconclusive: 35.5 µM [activator, single point] |
| COc1ccc(S(=O)(=O)N2CCC(C(=O)NCc3ccco3)CC2)cc1C | inactive: 3.65% [at 46.1 µM] |  |
| Cc1cc(C)c(S(N)(=O)=O)c(C)c1N(C)S(=O)(=O)c1ccccc1 |  | inconclusive: 12.6 µM [inhibitor, partial curve, poor fit] |
| COc1cc(CCC(=O)Nc2cc(Cl)ccc2N2CCN(C)CC2)cc(OC)c1OC | inactive: -24% |  |
| CCOc1ccc(/C=C2\SC(=S)N(NS(=O)(=O)c3ccc(C)cc3)C2=O)cc1OC |  | inconclusive: 14.1 µM [activator, single point] |
| CCc1c(C)c2ccc(O)c(CN3CCN(c4ccc(OC)cc4)CC3)c2oc1=O |  | inconclusive: 3.16 µM [activator, partial curve, poor fit] |
| COc1ccc([N+](=O)[O-])cc1NC(=O)c1cccnc1 |  | inconclusive: 6.31 µM [inhibitor, single point] |
| Cc1cccc(-n2c(Cc3ccccc3)nnc2SCc2ccc([N+](=O)[O-])cc2)c1 | inactive: -18% |  |
| Cc1ccc(N/C(N)=N/c2nc(C)cc(N3CCCCC3)n2)c(C)c1 |  | inconclusive: 1.12 µM [inhibitor, full curve, poor fit] |
| COc1ccc(-c2cc(C(=O)Nc3c(C)n(C)n(-c4ccccc4)c3=O)c3ccccc3n2)c(OC)c1 |  | inconclusive: 11.2 µM [inhibitor, partial curve, poor fit] |
| COc1ccc(CN(C)S(=O)(=O)c2c(C)noc2C)cc1OC | inactive: 17.9% |  |
| O=C(Cc1cn2ccsc2n1)Nc1nc2c(s1)CCCC2 |  | inconclusive: 35.5 µM [inhibitor, single point] |
| O=C(Nc1cccc2ncccc12)c1ccc(-c2ccc(Br)cc2)o1 |  | inconclusive: 29.1 µM [inhibitor, single point] |
| CCC1(C)Cc2sc3c(=O)[nH]c(=S)[nH]c3c2CO1 (stereo not drawn) |  | inconclusive: 14.1 µM [activator, single point] |
| CCc1ccc(OC)c(S(=O)(=O)Nc2ccc(Cc3ccncc3)cc2)c1 |  | inconclusive: 0.891 µM [inhibitor, full curve, poor fit] |
| Cc1cc(O)c(-c2cc(C(=O)Nc3ccc(S(=O)(=O)N4CCOCC4)cc3)[nH]n2)cc1C |  | inconclusive: 16.4 µM [inhibitor, single point] |
| CCc1ccc(-c2cn3c(n2)SCC3)cc1 |  | inconclusive: 0.316 µM [activator, full curve, poor fit] |
| CCCCn1ccnc1C(=O)c1ccc(S(=O)(=O)N(CCOC)CCOC)cc1 | inactive: -0.873% |  |
| COc1cccc([C@@H]2Oc3ccc(OC)cc3C[C@H]2OC(=O)N[C@H]2CCCc3ccccc32)c1 | inactive: 3.06% [at 14.2 µM] |  |
| COc1ccc(-c2[nH]ncc2CNC(C)Cc2cccc(C)n2)cc1F (stereo not drawn) |  | inconclusive: 14.1 µM [inhibitor, single point] |

| Structure (SMILES) | activity change, negative = inhibition | Potency |
| --- | --- | --- |
| COC(=O)c1ccccc1NC(=O)C1(S(=O)(=O)c2ccc(Cl)cc2)CC1 |  | inconclusive: 17.8 µM [inhibitor, single point] |
| CCCCC(O)(CCCC)C(=O)NN(C(=O)CCl)c1ccccc1 |  | inconclusive: 8.91 µM [inhibitor, partial curve, poor fit] |
| CCn1c(=NC(=O)CS(=O)(=O)c2ccccc2)sc2cccc(OC)c21 |  | inconclusive: 1 µM [activator, partial curve, poor fit] |
| CC(=O)NC(c1ccccc1)c1nc2ccccc2[nH]1 (stereo not drawn) |  | inactive |
| COc1cc(C(=S)N2CCN(c3cccc(Cl)c3)CC2)ccc1O |  | inconclusive: 11.2 µM [inhibitor, partial curve, poor fit] |
| O[C@@H]1COC(Nc2ccc(N=Nc3ccccc3)cc2)C[C@@H]1O (stereo partly drawn) | inactive: -28% |  |
| CC1=NC(=O)C(N=Nc2cccc(O)c2)N1c1ccccc1 (stereo not drawn) | inactive: 21.8% |  |
| Cn1c(-[n+]2c(-c3ccccc3)cc(-c3ccccc3)cc2-c2ccccc2)nc2c([N+](=O)[O-])cccc21 |  | inconclusive: 15.8 µM [inhibitor, single point] |
| Cn1cc(CN2CCCC(C(=O)c3ccc(-c4ccccc4)c(F)c3)C2)cn1 (stereo not drawn) |  | inconclusive: 15.8 µM [inhibitor, single point] |
| CCCOc1ccccc1NS(=O)(=O)c1ccc2[nH]c(=O)[nH]c2c1 | inactive: -7.35% [at 46.1 µM] |  |
| COc1ccc(C(=O)CN(Cc2ccccc2)C2=NCCS2)cc1 |  | inconclusive: 35.5 µM [inhibitor, single point] |
| O=C1CN(c2ccccc2F)C(=O)CN1c1ccccc1F |  | inconclusive: 0.092 µM [inhibitor, full curve, poor fit] |
| O=C(/C=C/c1ccc([N+](=O)[O-])cc1)N1CCN(S(=O)(=O)c2ccccc2)CC1 | inactive: 20.5% |  |
| CCCCNC(=O)/C(C#N)=C/c1ccc(-c2ccc(S(=O)(=O)N3CCOCC3)cc2)o1 |  | inconclusive: 1.41 µM [activator, partial curve, poor fit] |
| CC(CCC(=O)OC[C@H]1O[C@H](C#Cc2ccccc2)C=C[C@H]1Oc1ccc(C)cc1)=NO[C@@H](C)CN1CCCCc2nc(C)c(C)cc21 | inactive: -16.3% [at 14.2 µM] |  |
| COc1cc(-c2cc(C(=O)Nc3cc(S(=O)(=O)N4CCOCC4)ccc3C)c3ccccc3n2)cc(OC)c1OC |  | inconclusive: 25.1 µM [inhibitor, single point] |
| CCc1ccc(-c2cc3c(=O)n(CC(=O)NCc4ccccc4F)ncn3n2)cc1 | inactive: -1.33% [at 46.1 µM] |  |
| Cc1ccc(C)c(CN2CCC(n3nccc3NC(=O)C3CCCC3)CC2)c1 |  | inconclusive: 11.2 µM [inhibitor, partial curve, poor fit] |
| CCN1CCc2nc(NC(=O)Cc3ccc4c(c3)OCCO4)sc2C1 |  | inconclusive: 0.58 µM [inhibitor, full curve, poor fit] |
| CSc1nc2sc3c(c2c(=O)[nH]1)CC[C@@H](C)C3 | inactive: 22.7% |  |
| Oc1c(Br)cc(C2N=C(c3ccccc3Cl)NO2)cc1Br (stereo not drawn) |  | inconclusive: 2.51 µM [activator, full curve, poor fit] |

Part of the list above in order of SMILES length, rising:

| Structure (SMILES) | activity change, negative = inhibition | Potency |
| --- | --- | --- |
| Oc1c(Br)cc(C2N=C(c3ccccc3Cl)NO2)cc1Br (stereo not drawn) |  | inconclusive: 2.51 µM [activator, full curve, poor fit] |
| CCc1ccc(-c2cc3c(=O)n(CC(=O)NCc4ccccc4F)ncn3n2)cc1 | inactive: -1.33% [at 46.1 µM] |  |
| O=C(/C=C/c1ccc([N+](=O)[O-])cc1)N1CCN(S(=O)(=O)c2ccccc2)CC1 | inactive: 20.5% |  |
